# Laboratory results published in article PMC10481574.
# Results are given in words; binding and its absence hold for the method and conditions named. In cells and extracts the contact can be indirect. A result given as binding can be weak or reduced; the word gives no strength.
# Molecular target: TNFR2-ICD (intracellular domain of TNFR2) (human)
# Test: co-IP; HEK293T cells harvested ~24 h after transfection, lysed in cell lysis buffer for Western and IP (Beyotime P0013); lysates precleared with protein A/G-PLUS agarose beads; IP with anti-HA tag or anti-FLAG tag antibody, immunoblot
row,Binder,binding
1,"RGS5 aa 1-108 (N-RGS5) (domain or fragment, UniProt O15539 1-108) MCKGLAALPHSCLERAKEIKIKLGILLQKPDSVGDLVIPYNEKPEKPAKTQKTSLDEALQWRDSLDKLLQNNYGLASFKSFLKSEFSEENLEFWIACEDYKKIKSPAK",binds
2,"RGS5 aa 109-181 (C-RGS5) (domain or fragment, UniProt O15539 109-181) MAEKAKQIYEEFIQTEAPKEVNIDHFTKDITMKNLVEPSLSSFDMAQKRIHALMEKDSLPRFVRSEFYQELIK",no binding
